Source: patent publication US20180118816A1
These are yes or no findings as the source states them, for the method shown. Some entries that bind do so weakly or less than the wild type.

Molecular target: HBX2 gp140 (gp120+the extracellular portion of gp41) on CHO cells (CHO-gp140) (HIV, strain HBX2 (so in the source)) (UniProt P04578)
Assay: flow cytometry on CHO-gp140 cells, antibody at 30 µg/mL, AlexaFluor 647 anti-human kappa detection

- binding: binds
B1: HIV02 IgG (HIV02G) (antibody, V domains shown)
VH: QVQLVQSGGQMKKPGESMRISCQASGYEFIDCTLNWVRLAPGRRPEWMGWLKPRGGAVNYARPLQGRVTMTRDVYSDTAFLELRSLTADDTAVYYCTRGKNCDYNWDFEHWGRGTPVTVSS
VL: EIVLTQSPGTLSLSPGETAIISCRTSQYGSLAWYQQRPGQAPRLVIYSGSTRAAGIPDRFSGSRWGPDYNLTIRNLESGDFGLYYCQQYEFFGQGTKVQVDI
